Record: PubChem BioAssay AID1671195 (Yale University, 2021)

- Screen: 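Genes whose knockdown alters LDL uptake in liver cancer cells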 (primary screen)
- Cells: human Huh7 hepatoma cells
- Reagents: siRNA pool against human genes, 18 nM
- Timing: about 2 to 2.5 days of knockdown, then 8 h LDL uptake
- Challenge: DiI-labelled LDL at 30 µg/ml for 8 h, in lipoprotein-deficient serum medium
- Detection: 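Per-cell DiI-LDL intensity by automated imaging; well means scaled to the plate median and given as a robust z-score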
- Direction: robust z-score: higher = more LDL uptake after knockdown
- Rule for the call: 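Active when two or more replicates show a robust z-score above 2 or below -2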
This is an unselected part of about 22,000 reagents tested. About 1,510 of all reagents (6.9%) count as active. 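Active includes knockdowns raising or lowering LDL uptake; positive z-scores mean more uptake, negative mean less.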 Reagents against one gene are numbered here.

| gene knocked down | pool no. | robust z-score, replicate 1 | robust z-score, replicate 2 | robust z-score, replicate 3 | activity call |
| --- | --- | --- | --- | --- | --- |
| CC2D1A | 1 | 0.9 | 1.96 | -0.66 | inactive |
| LOC387821 (retired record) | 1 | 0.261 | 0.272 | 0.199 | inactive |
| IGSF21 | 1 | -0.0019 | 0.12 | -0.103 | inactive |
| LOC149913 (retired record) | 1 | 0.286 | -0.148 | 0.658 | inactive |
| PRND | 1 | -1.22 | 0.439 | 0.859 | inactive |
| RPL3L | 1 | -0.519 | 0.137 | -0.712 | inactive |
| KIF5B | 1 | 1.13 | 0.00399 | -0.147 | inactive |
| TENT5C | 1 | 0.238 | 1.51 | -0.665 | inactive |
| COL25A1 | 1 | 0.291 | 0.117 | 0.288 | inactive |
| CHORDC1 | 1 | 4.58 | -1.65 | 0.608 | inactive |
| TMEM132C | 1 | 2.45 | 0.438 | 1.79 | active |
| RPL29P19 | 1 | -1.46 | -1.55 | -1.75 | inactive |
| EIF2AK3 | 1 | -0.273 | 0.182 | -0.516 | inactive |
| PLSCR5 | 1 | -0.0298 | -0.162 | -0.143 | inactive |
| LOC442096 (retired record) | 1 | -0.424 | 0.0146 | -0.12 | inactive |
| UGT2B7 | 1 | 0.173 | 0.106 | 0.293 | inactive |
| DGCR2 | 1 | -1.78 | -2.43 | -0.854 | inactive |
| LOC441149 (retired record) | 1 | 0.0575 | 0.111 | 0.228 | inactive |
| RBM28 | 1 | -1.28 | -1.7 | -1.98 | inactive |
| HDAC6 | 1 | -0.067 | 1.04 | -0.526 | inactive |
| DDX39A | 1 | -0.536 | 0.0916 | 0.317 | inactive |
| ALOX5AP | 1 | -0.503 | -0.271 | -1.26 | inactive |
| RPAP3 | 1 | -0.678 | 0.917 | -0.55 | inactive |
| LOC400877 (retired record) | 1 | -1.07 | -0.926 | -1.08 | inactive |
| ADCYAP1 | 1 | -1.75 | -1.65 | -1.43 | inactive |
| ATP2B4 | 1 | -0.372 | -0.101 | -0.837 | inactive |
| FSD1L | 1 | 1.93 | 0.855 | 3.15 | inactive |
| FSD1L | 2 | 1.02 | 0.786 | 0.638 | inactive |
| SPEM1 | 1 | 3.26 | 3.64 | 3.3 | active |
| ALK | 1 | -0.554 | -0.823 | -0.886 | inactive |
| UCHL1 | 1 | -0.107 | 0.222 | -0.149 | inactive |
| SEC61A2 | 1 | -0.653 | 2.56 | 0.81 | inactive |
| PTTG1 | 1 | -1.41 | -0.0847 | -1.19 | inactive |
| BRIX1 | 1 | -1.12 | -0.589 | 0.377 | inactive |
| ADSS1 | 1 | -0.0286 | -0.62 | 0.0437 | inactive |
| CAMSAP1 | 1 | -0.146 | 1.19 | -0.33 | inactive |
| PRKAR2B | 1 | -0.628 | -0.89 | -0.713 | inactive |
| LINC02912 | 1 | -1.67 | -1.94 | -1.75 | inactive |
| SEMA4G | 1 | 0.968 | -0.15 | -0.154 | inactive |
| ANKRD18B | 1 | 1.14 | 0.284 | 0.488 | inactive |
| TMBIM1 | 1 | -0.0384 | 1.08 | 0.76 | inactive |
| LINC01140 | 1 | 0.534 | 0.903 | 0.469 | inactive |
| OR51D1 | 1 | 0.565 | 0.544 | 0.431 | inactive |

11 entries from above in another layout:
COL25A1: robust z-score, replicate 1 = 0.291; robust z-score, replicate 2 = 0.117; robust z-score, replicate 3 = 0.288; activity call = inactive
CHORDC1: robust z-score, replicate 1 = 4.58; robust z-score, replicate 2 = -1.65; robust z-score, replicate 3 = 0.608; activity call = inactive
TMEM132C: robust z-score, replicate 1 = 2.45; robust z-score, replicate 2 = 0.438; robust z-score, replicate 3 = 1.79; activity call = active
RPL29P19: robust z-score, replicate 1 = -1.46; robust z-score, replicate 2 = -1.55; robust z-score, replicate 3 = -1.75; activity call = inactive
EIF2AK3: robust z-score, replicate 1 = -0.273; robust z-score, replicate 2 = 0.182; robust z-score, replicate 3 = -0.516; activity call = inactive
PLSCR5: robust z-score, replicate 1 = -0.0298; robust z-score, replicate 2 = -0.162; robust z-score, replicate 3 = -0.143; activity call = inactive
LOC442096 (retired record): robust z-score, replicate 1 = -0.424; robust z-score, replicate 2 = 0.0146; robust z-score, replicate 3 = -0.12; activity call = inactive
UGT2B7: robust z-score, replicate 1 = 0.173; robust z-score, replicate 2 = 0.106; robust z-score, replicate 3 = 0.293; activity call = inactive
DGCR2: robust z-score, replicate 1 = -1.78; robust z-score, replicate 2 = -2.43; robust z-score, replicate 3 = -0.854; activity call = inactive
LOC441149 (retired record): robust z-score, replicate 1 = 0.0575; robust z-score, replicate 2 = 0.111; robust z-score, replicate 3 = 0.228; activity call = inactive
RBM28: robust z-score, replicate 1 = -1.28; robust z-score, replicate 2 = -1.7; robust z-score, replicate 3 = -1.98; activity call = inactive

The listing continues:
| gene knocked down | pool no. | robust z-score, replicate 1 | robust z-score, replicate 2 | robust z-score, replicate 3 | activity call |
| --- | --- | --- | --- | --- | --- |
| IGFN1 | 1 | 0.17 | 0.129 | 0.0467 | inactive |
| CCDC186 | 1 | 0.479 | -0.877 | -0.446 | inactive |
| SIRT6 | 1 | 0.257 | 2.47 | 0.0311 | inactive |
| AKR1B1P8 | 1 | -0.544 | 1.05 | 0.716 | inactive |
| MORN4 | 1 | 3.34 | 2.93 | 2.34 | active |
| SGSM1 | 1 | 0.492 | 1.23 | 1.56 | inactive |
| PSPN | 1 | -1.98 | -0.244 | -2.37 | active |
| RPL35P7 | 1 | -0.902 | -0.879 | -1.1 | inactive |
| CAMK2D | 1 | -1.55 | -1.92 | -1.93 | inactive |
| CAMK1D | 1 | -0.782 | -0.999 | -0.238 | inactive |
| GALNT18 | 1 | 0.377 | -0.28 | 0.403 | inactive |
| ACY3 | 1 | 1.71 | 1.26 | 1.19 | inactive |
| GARIN5B | 1 | 1.53 | 1.17 | 1.46 | inactive |
| CRABP1 | 1 | -0.223 | -0.897 | 0.0691 | inactive |
| CCDC85A | 1 | 1.12 | -0.618 | 0.401 | inactive |
| HCN2 | 1 | 1.01 | 0.691 | 0.587 | inactive |
| MYLK3 | 1 | 0.0808 | 0.304 | 0.35 | inactive |
| USP9Y | 1 | -1.95 | -2.33 | -1.72 | active |
| HR | 1 | -1.74 | -1.97 | -1.54 | inactive |
| ODAPH | 1 | -1.54 | -1.79 | -1.69 | inactive |
| ST13 | 1 | 0.273 | -0.206 | 0.125 | inactive |
| FCGR1A | 1 | 0.19 | -0.255 | -0.842 | inactive |
| LOC388114 (retired record) | 1 | 0.575 | -0.0859 | 0.0364 | inactive |
| CBARP | 1 | 0.53 | 1.04 | 1.44 | inactive |
| NPLOC4 | 1 | -0.545 | -1.13 | -0.744 | inactive |
